Legend:
PC-3 = experiment: Cytotoxicity against prostate cancer cell lines PC-3 was determined; assay type: functional, cell-based; conditions: Homo sapiens
A549 = experiment: Cytotoxicity against […] cell lines A549 was determined; assay type: functional, cell-based; conditions: Homo sapiens

`COc1cccc2c1C(=O)c1c(O)c3c(c(O)c1C2=O)C[C@@](O)(C(=O)CO)C[C@@H]3O[C@H]1C[C@H](N)[C@H](O)[C@H](C)O1` [DOXORUBICIN] gave an IC50 (PC-3) of 0.0498 µM and an IC50 (A549) of 0.0027 µM.
